The values that follow come from PubChem BioAssay AID1347426 (Functional Genomics Laboratory (NCATS/FGL), 2020).

Out of some 31,000 sequences screened, about 1,400 (4.5%) were called active.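 Rule for the calls: active = median seed-adjusted z-score above 1 or below -1; inactive = the rest.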 This is one part of the list.

A short description of the assay: Novel Modifiers of Survival Motor Neuron (SMN) Protein: Gene Identification via Genome-wide siRNA Screen.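 Note: luminescence tracks full-length SMN protein made from the SMN2 reporter.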 As to conditions: HEK293T SMN2-luciferase reporter, siRNA knockdown, 72 h; actives lie on both sides. The procedure, abridged:
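Genome-wide siRNA screen (10418 genes, 3 siRNAs each, 1 pmol per well) by reverse transfection in HEK293T cells stably carrying an SMN2-luciferase reporter; luminescence after 72 hours, normalized to negative-control siRNA, log10-transformed, MAD-scored.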
On the technique in general: In a reporter assay the amount or activity of a reporter protein is the signal.
Consider GCUGCUUUCUGGCUCGAAATT against NEU4, for which the median seed-adjusted z-score is inactive: -0.152.
As for GACGCGGUAUGUAGACAUATT against NAT8B, the figure is inactive: 0.206; as for CUCCUGUUUUGGUCCCGAATT against SV2A, inactive: 0.138.
As for GCUCAAAUCUUAUUGACCATT against ZNF383, the figure is inactive: -0.196.
Regarding AGGUAGAAGAAAUGCAAUATT against PKIA, the median seed-adjusted z-score was inactive: 0.533.
With GCAGGAUGCUGAAAUUGCATT against S100A6 the figure was inactive: -0.264; with CUGUAUCUGUGGACCUGAATT against SNX5, inactive: -0.141.
In the case of CAGUCAGACAUAUUACCUATT against ZNF765, the median seed-adjusted z-score is inactive: 0.541.
As for CUGUCAAUCUAGUACUAUATT against PIGF, the figure is inactive: -0.239; as for GGAGUGACCGGAAACAUCATT against PRKCD, inactive: -0.236.
As for GGUACUAGCUGUAAGCGGATT against SIX5, the figure is inactive: 0; as for CCUAUUAAACAGUACAGAUTT against MC4R, inactive: 0.154.
As for CCCGCUACAUUUACGUUGUTT against ACER1, the figure is inactive: 0.308.
Regarding CCGUGGAGAUGAUACAGGATT against DDX25, the median seed-adjusted z-score was inactive: 0.
Regarding GGGUCUCCUGAGUUAGGUATT against ELF2, the median seed-adjusted z-score was inactive: -0.514.
With GCGAGAGGCUAUCACUGCATT against BLOC1S1 the figure was inactive: 0.0692; with GCCUUCUAGAUUUACCCGATT against NKX2-8, inactive: 0.104.
On to UGGUAUAUCCAGUAUGUGATT against MLXIPL, for which the median seed-adjusted z-score is inactive: 0.
As for CGUUAACCAUUGACAGGUATT against GPR139, the figure is inactive: 0.0111; as for GCCUCAAAGUCUUGAAGAATT against TTC9, inactive: -0.173.
Regarding GGAUUUGGGCUGUAUGGAUTT against BTBD2, the median seed-adjusted z-score was inactive: 0.0303.
As for GGUAUAAACGCGUCCAGCATT against MAFB, the figure is inactive: 0.674.
As for AGGGCUCCUUUGUCACAAATT against MCAT, the figure is inactive: 0; as for GCGGGACUAUGUGAUCGAATT against MCM2, inactive: 0.
Consider CCAUUAUGAUCGUAAGGCATT against GCNT4, for which the median seed-adjusted z-score is inactive: -0.0629.
For GGAGCACAGAAUACCGGAATT against C3orf64, the median seed-adjusted z-score is inactive: 0.0771.
With GAGUAUAUCUCUGAAAGAATT against SAR1B the figure was inactive: 0.693; with UCACUUCUAGUUUUACUUUTT against NDUFA7, inactive: 0.356.
For the sequence GCAAGGUAACAAAUCGGAATT against POLR3K, the median seed-adjusted z-score was inactive: 0.504.
Turning to ACCGUAUUCCUAUAUCUCATT against FOXA3, the median seed-adjusted z-score was inactive: 0.128.
For GAAUCACUCUUUACGCAGUTT against CCKBR, the median seed-adjusted z-score is inactive: 0.314.
As for ACAUGAGGAUCACAAAUGATT against ST14, the median seed-adjusted z-score was inactive: -0.534.
With GCUCUGUGCUCUCUAGUGATT against LEFTY1 the figure was inactive: 0.383; with GCACCUAUAUUGUAAUAGATT against PTPRG, inactive: 0.0697.
As for CCUUAUACAUAAAAUCCUUTT against CD1E, the figure is inactive: -0.133.
Turning to CGCAGUAUGUGGACUAUGATT against NID2, the median seed-adjusted z-score is inactive: 0.283.
For the sequence ACUGGAUUUUUAUACUAGATT against GLO1, the median seed-adjusted z-score is inactive: -0.0827.
With CGGACAACAUGUACCGGAATT against MYO1F the figure was inactive: 0.103; with GGUAGAUAUUUCUAGUACATT against BIRC6, inactive: 0.0785.
CAAGAGUGAUCCAACUAAATT against PCDHA12: the median seed-adjusted z-score is inactive: 0.0761.
With GUAUGGAUCCCUUAAUAUATT against P2RY13 the figure was inactive: -0.0427; with CCAGUGUCAUCAGCGAUGATT against NUAK1, inactive: -0.197.
As for GAAGCUGAAGGAUUAUUUATT against VPS4A, the figure is inactive: 0.
Take GGUUUUUGCCCAAGUCUCATT against ZNF324: the median seed-adjusted z-score was inactive: 0.
In the case of AGACUUCACAACAAGAGAATT against TIMM9, the median seed-adjusted z-score was inactive: -0.371.
With CCAUCCGCAACAUCACAAATT against IGF2BP1 the figure was inactive: -0.993.
As for CACGGACCUUGAGGAAUUATT against TBC1D22A, the figure is inactive: -0.00192; as for CAGAUGUUAUGGAUAUAAUTT against L2HGDH, inactive: -0.346; as for GUUAAUCACAUACACCAAATT against GPR22, inactive: 0.705.
With GUGACUGUUUAAUCGGUUATT against POLR3B the figure was inactive: -0.151; with GGGAACCAUUGAUCGAAUATT against SNX30, inactive: -0.157; with CGGACAAGAUUGACAGGUATT against TSPAN4, inactive: 0.417.
With GAAUCACGAUAGAUGAAGATT against DLD, the median seed-adjusted z-score was inactive: 0.377.
With CCUUAGCGAUUUGAUCCCATT against GALNT5 the figure was inactive: -0.279.
With GCAGGGACUUGAUAGACGATT against ANXA4 the figure was inactive: -0.0932; with GGCUUACUAAAAAUGAACATT against UST, inactive: 0.265.
With CCCGGGAACCCAUAACAAATT against CYP2C19 the figure was inactive: -0.0674; with UGAGGACACUUCUUGGAGATT against FOXE3, inactive: -0.451; with CAAGGUCACUUGGUACAUATT against CD48, inactive: -0.0981.
As for GGAGUGCUAAUCUAUGAAATT against PRKACB, the median seed-adjusted z-score was inactive: -0.258.
As for CUAACAACGUACAAAUGGATT against TRIM42, the median seed-adjusted z-score is inactive: -0.153.
With CCAGCUCCUUAAGUACUAATT against F2RL2 the figure was inactive: -0.216; with GGGCCUCAGUGGUUUCUGUTT against RELT, inactive: 0.349.
As for GGACAUUCAAUUCGACAAATT against DDX4, the figure is inactive: -0.136; as for GGGAUAUUUUCUACGCUUUTT against DNAH5, inactive: -0.45; as for CGAGUGAUGAUAAUCCGGATT against RUVBL1, inactive: -0.834.
GGAUAUCAACUUAUUAGAUTT against XPO1: the median seed-adjusted z-score is active: 1.12.
As for ACCUCACUGUUCUACUACATT against SLC26A11, the figure is inactive: -0.507; as for GCACAUCCACCAACAGGUATT against COCH, inactive: -0.524; as for CAAGCAUAGUGCUUAUUUUTT against FOXQ1, inactive: 0.369.
In the case of GAGAGAUUUGUAUAUCGUUTT against DOCK3, the median seed-adjusted z-score is inactive: 0.51.
For the sequence GGGCAGUCAUUGGAUCUGATT against DPEP3, the median seed-adjusted z-score was inactive: 0.95.
In the case of GACAAGACCUUAAAUGAUUTT against ZBTB7A, the median seed-adjusted z-score was inactive: -0.344.
For GACCGGGUAUCUUCUAAUATT against SLC24A6, the median seed-adjusted z-score is inactive: -0.792.
Regarding AGGUGUACAGUGACGCACATT against FGFR3, the median seed-adjusted z-score is inactive: -0.133.
With GGAUUGUCGGCAGUAGUAATT against MARCO the figure was inactive: 0.137; with CAGAAAGUCAGAUCGAUAATT against KRR1, inactive: -0.0353; with GCAAGUGUUUUGAUCAAAATT against ZNF662, inactive: 0.352.
Take GCUACUCUGUCAUCUUUGATT against RCBTB2: the median seed-adjusted z-score was inactive: 0.235.
GGGAAGUCUUUUAAUCGUATT against ZNF780B: the median seed-adjusted z-score was inactive: -0.332.
With ACACCAAGUCUUUUGAGGATT against HRAS the figure was inactive: -0.85; with UAGUCAAGGUGGAUUUUGATT against CAV3, inactive: 0; with GGAAAUCCUUCAUAUACAATT against ZNF549, inactive: 0.0114.
As for CUACGAGAAUAAUUCGGAATT against THOC1, the figure is active: -3.04; as for CCAACAAUUUAGUAGUUAUTT against TBP, active: -1.25; as for AAUCAAGGCUAUCAAGUAUTT against NPSR1, inactive: -0.314.
As for GAAAGAUUGAAGAAGUUCATT against PRMT3, the figure is inactive: 0.00875.
For the sequence AGCUACCGAUGGAAGAGGATT against CLK3, the median seed-adjusted z-score is active: -1.11.
With ACUUUGCCUUCAAGCUCUATT against SERPINA13 the figure was inactive: -0.403; with CAGAACUAUUCAACAAUUUTT against CD200R2, inactive: -0.772.
As for CUACGCUACUGAUCGGAAATT against ATPAF1, the figure is inactive: 0.393; as for AGAGAAUUGGUGAGUUUAATT against TCF15, inactive: -0.361; as for GGCCGGAGAUUAUCCUCAATT against MIXL1, inactive: -0.204.
As for CAUCAGGUCUGACAAAACATT against PCGF2, the figure is inactive: 0.187.
On to GGAUGUUUUGACUACACUATT against ACADSB, for which the median seed-adjusted z-score was inactive: -0.436.
As for CUUGCACUCCUGUCCAUAATT against AP3B1, the figure is inactive: 0.31.
Consider GGAAAUUGUGGAUAUGAUUTT against SULT1C2, for which the median seed-adjusted z-score was inactive: 0.
GACCAGAGCUGAUUGAGUATT against ACTN4: the median seed-adjusted z-score is inactive: 0.
With GGGCGAGAUUAUGAGUACATT against HNRNPUL2 the figure was inactive: -0.0273.
As to CACCCUGAUUCAUCCGAGATT against TRPC4, the median seed-adjusted z-score is inactive: -0.272.
In the case of AGUUCUUCCUAAUCCGAGATT against DOLPP1, the median seed-adjusted z-score is inactive: 0.00977.
With GAGAUGCUGUGGUCACGUATT against SLC12A2, the median seed-adjusted z-score is inactive: -0.4.
GAUGAUGACAAGUUUGAUATT against COQ5: the median seed-adjusted z-score is inactive: -0.0292.
With CCUAUGCCUUCAUACCAUUTT against CYP4Z1 the figure was inactive: -0.139.
As for CCAGAUUGAUGUCAUGUAUTT against BMI1, the median seed-adjusted z-score is inactive: 0.
In the case of CAGAGUACCUUGUCGUGUATT against TNC, the median seed-adjusted z-score was inactive: -0.253.
AGGCAGUCCAUGUCAUCUATT against CXCR4: the median seed-adjusted z-score is inactive: -0.347.
With GGAACAAGAGUGGACGGAATT against PIAS3 the figure was inactive: -0.216.
